This note sets out measurements from the supplement of paper PMC7666118.

Protein sequences, listed by entry. Tags and fused reporters are not part of them. Lines headed by an entry give the natural chain unless they say otherwise; changes in a name come on top.
UniProt Q9C0C7: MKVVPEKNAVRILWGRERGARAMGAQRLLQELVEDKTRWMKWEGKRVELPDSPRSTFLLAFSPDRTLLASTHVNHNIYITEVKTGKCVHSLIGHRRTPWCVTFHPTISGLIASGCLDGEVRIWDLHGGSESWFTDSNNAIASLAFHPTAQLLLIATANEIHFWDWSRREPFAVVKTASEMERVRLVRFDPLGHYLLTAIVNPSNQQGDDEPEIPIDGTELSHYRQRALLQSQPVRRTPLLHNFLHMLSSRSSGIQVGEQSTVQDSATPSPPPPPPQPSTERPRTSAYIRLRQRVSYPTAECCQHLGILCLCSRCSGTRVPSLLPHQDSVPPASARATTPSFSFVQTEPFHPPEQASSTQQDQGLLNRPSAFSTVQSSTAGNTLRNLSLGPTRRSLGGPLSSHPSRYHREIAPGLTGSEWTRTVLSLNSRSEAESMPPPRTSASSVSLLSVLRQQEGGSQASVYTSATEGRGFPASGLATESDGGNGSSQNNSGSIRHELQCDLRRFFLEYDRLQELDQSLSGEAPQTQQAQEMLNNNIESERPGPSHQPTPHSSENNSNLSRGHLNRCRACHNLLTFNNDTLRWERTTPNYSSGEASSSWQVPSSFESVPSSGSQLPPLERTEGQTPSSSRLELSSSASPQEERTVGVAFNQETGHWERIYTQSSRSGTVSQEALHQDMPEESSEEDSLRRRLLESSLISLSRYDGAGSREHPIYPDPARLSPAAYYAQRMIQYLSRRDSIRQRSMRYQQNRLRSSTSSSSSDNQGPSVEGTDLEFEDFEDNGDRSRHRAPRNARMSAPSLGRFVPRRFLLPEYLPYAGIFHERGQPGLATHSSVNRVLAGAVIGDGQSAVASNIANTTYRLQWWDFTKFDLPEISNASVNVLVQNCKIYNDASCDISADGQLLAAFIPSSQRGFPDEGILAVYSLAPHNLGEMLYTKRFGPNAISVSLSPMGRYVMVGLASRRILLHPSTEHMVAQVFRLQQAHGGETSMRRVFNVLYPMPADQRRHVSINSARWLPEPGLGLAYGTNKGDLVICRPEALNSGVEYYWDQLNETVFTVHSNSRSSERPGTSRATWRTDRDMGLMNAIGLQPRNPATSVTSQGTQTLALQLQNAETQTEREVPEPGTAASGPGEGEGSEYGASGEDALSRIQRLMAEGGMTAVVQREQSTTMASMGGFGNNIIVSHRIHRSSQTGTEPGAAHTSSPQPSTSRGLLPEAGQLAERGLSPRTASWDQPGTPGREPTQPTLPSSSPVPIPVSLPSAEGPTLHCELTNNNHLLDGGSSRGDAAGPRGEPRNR
UniProt Q68CP9, whole entry: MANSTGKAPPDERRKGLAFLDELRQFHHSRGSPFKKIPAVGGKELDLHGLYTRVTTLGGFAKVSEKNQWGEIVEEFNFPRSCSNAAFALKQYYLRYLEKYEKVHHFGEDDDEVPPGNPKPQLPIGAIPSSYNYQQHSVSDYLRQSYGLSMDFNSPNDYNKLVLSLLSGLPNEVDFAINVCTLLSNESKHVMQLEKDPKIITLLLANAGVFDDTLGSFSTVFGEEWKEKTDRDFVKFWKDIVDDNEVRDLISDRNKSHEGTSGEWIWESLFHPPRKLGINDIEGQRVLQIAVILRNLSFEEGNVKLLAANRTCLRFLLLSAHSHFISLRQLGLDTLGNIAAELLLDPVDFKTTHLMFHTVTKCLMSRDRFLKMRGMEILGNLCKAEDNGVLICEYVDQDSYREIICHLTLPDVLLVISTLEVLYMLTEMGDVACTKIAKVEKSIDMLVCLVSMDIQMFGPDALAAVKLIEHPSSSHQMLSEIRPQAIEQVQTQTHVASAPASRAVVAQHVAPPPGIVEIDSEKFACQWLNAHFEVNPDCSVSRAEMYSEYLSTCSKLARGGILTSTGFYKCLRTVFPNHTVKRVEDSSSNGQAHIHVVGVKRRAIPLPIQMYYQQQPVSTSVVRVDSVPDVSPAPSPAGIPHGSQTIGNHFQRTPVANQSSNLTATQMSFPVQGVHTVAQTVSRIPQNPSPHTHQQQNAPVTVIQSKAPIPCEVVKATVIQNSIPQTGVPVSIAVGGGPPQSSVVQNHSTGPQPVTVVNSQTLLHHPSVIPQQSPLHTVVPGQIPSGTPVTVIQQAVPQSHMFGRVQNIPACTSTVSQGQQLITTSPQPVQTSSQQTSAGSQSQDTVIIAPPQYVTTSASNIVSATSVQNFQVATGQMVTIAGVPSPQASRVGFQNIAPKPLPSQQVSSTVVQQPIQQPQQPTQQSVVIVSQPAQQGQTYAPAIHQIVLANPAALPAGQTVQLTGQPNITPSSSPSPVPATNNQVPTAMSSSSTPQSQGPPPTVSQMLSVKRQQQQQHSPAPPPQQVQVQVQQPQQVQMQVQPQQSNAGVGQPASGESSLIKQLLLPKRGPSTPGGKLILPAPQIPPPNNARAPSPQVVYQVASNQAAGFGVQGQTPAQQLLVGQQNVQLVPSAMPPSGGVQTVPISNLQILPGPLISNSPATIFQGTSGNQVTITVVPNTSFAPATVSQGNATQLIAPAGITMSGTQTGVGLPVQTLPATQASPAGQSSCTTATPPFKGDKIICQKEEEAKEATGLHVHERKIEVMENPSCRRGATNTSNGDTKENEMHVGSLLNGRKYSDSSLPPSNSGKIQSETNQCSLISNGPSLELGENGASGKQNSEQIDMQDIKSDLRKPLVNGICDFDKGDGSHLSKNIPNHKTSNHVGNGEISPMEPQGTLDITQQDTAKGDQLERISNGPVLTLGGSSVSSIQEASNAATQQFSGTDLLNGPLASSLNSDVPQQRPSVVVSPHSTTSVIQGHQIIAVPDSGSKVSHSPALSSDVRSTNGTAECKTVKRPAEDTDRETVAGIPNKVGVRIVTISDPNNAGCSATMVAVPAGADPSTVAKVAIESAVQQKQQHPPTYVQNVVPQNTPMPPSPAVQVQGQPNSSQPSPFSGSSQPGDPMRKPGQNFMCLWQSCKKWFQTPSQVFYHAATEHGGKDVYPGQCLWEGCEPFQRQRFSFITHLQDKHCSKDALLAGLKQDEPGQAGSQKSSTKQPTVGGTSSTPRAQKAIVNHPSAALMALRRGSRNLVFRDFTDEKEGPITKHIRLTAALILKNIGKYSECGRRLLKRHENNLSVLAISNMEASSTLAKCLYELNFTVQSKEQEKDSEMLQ
UniProt Q9BV10: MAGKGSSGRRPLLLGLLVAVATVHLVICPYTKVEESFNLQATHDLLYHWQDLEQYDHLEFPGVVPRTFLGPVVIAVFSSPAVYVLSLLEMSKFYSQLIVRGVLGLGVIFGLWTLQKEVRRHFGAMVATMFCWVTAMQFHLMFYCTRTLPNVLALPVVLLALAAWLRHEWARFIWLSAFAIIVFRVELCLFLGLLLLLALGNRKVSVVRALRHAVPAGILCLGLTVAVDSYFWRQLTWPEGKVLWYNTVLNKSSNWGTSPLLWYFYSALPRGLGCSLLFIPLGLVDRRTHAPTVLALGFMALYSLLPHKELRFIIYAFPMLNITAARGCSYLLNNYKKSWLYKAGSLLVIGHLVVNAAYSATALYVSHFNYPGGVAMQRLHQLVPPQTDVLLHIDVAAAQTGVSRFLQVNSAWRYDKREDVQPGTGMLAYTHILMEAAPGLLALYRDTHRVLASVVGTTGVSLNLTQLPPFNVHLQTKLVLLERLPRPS
UniProt Q8N8A2: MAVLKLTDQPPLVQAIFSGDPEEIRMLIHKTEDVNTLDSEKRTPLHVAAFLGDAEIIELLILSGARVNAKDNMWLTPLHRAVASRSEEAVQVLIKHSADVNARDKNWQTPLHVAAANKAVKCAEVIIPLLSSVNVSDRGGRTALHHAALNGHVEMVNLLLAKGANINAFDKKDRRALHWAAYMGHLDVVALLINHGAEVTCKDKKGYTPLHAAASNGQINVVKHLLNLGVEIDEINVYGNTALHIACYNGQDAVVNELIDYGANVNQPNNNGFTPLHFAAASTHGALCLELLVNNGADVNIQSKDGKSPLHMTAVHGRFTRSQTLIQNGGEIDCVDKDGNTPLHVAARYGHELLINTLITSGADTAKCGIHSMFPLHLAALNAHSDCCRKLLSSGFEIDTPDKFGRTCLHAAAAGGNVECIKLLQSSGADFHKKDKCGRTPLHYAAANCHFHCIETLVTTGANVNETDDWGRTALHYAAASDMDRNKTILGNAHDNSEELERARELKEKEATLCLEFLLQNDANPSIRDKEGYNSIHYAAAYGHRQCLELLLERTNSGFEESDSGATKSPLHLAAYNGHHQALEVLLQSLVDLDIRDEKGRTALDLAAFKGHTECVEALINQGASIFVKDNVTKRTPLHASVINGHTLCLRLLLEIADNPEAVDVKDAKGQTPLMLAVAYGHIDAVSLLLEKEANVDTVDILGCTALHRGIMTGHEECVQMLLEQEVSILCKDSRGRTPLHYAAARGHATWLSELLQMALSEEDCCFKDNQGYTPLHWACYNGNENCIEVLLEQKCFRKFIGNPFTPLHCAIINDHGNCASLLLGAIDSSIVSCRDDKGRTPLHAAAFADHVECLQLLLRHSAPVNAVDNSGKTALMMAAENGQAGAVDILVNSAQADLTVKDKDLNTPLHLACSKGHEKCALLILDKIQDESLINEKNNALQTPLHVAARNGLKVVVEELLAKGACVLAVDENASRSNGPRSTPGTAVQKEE
UniProt Q9BT22: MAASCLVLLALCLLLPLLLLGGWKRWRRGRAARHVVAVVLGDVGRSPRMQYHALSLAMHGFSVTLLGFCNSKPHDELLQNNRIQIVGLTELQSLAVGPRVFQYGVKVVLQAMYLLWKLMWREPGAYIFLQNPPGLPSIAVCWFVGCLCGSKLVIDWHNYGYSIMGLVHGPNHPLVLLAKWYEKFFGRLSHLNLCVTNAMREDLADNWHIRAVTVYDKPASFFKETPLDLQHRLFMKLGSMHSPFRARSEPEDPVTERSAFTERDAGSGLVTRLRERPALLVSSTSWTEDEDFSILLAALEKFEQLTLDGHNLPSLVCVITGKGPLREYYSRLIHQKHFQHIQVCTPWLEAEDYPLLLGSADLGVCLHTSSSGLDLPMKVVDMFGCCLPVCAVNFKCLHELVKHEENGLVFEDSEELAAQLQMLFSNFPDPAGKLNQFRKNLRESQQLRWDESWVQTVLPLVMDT
UniProt O43823: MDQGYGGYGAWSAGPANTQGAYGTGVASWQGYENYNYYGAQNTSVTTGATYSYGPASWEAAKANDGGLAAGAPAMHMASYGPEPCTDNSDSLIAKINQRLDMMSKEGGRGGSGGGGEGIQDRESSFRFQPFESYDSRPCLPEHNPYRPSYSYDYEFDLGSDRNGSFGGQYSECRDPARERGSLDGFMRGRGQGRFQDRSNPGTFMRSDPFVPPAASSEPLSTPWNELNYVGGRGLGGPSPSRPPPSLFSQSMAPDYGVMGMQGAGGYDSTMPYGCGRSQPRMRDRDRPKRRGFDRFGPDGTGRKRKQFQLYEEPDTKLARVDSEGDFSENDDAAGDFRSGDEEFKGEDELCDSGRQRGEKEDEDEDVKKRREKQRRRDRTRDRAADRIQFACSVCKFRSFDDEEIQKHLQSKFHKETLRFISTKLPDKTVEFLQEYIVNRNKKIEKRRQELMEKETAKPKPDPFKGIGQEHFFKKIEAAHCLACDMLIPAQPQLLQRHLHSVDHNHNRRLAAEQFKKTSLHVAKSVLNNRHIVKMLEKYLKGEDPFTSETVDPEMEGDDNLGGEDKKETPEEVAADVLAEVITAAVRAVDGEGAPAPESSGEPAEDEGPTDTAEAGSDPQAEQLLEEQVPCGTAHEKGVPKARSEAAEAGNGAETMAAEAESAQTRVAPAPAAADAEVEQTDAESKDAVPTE
UniProt P14550: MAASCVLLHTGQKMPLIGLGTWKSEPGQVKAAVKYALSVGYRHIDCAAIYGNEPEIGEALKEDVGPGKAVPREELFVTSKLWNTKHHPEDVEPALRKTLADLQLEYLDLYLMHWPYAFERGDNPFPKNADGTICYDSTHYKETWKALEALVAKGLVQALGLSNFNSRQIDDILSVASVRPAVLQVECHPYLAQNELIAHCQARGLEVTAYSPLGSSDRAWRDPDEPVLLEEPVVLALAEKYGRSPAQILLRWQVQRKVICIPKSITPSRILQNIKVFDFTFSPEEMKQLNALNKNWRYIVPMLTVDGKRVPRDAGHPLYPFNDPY

This is one part of the list.

Compound in this experiment: COc1ccc(Cn2ccc3ccc(C(=O)NO)cc32)cc1
The experiment is described as follows: dose-dependent thermal stabilisation call (2D-TPP, DLPTP, 10% FDR) (binary (1 = stabilised)); higher = stabilised by the compound. The conditions noted are these: system: HL-60 intact cells; concentration range 0.04-10 µM.
For the target ACSS1 (UniProt Q9NUB1), the “dose-dependent thermal stabilisation call” value was inactive: 0.

As for AMBRA1 (UniProt Q9C0C7), the “dose-dependent thermal stabilisation call” value is inactive: 0.

As for ARID2 (UniProt Q68CP9), the “dose-dependent thermal stabilisation call” value is inactive: 0.

For ALG12 (UniProt Q9BV10), the “dose-dependent thermal stabilisation call” value was inactive: 0.

For ANKRD44 (UniProt Q8N8A2), the “dose-dependent thermal stabilisation call” value is inactive: 0.

Consider ALG1 (UniProt Q9BT22), for which the “dose-dependent thermal stabilisation call” value was inactive: 0.

On to ARFGEF1 (UniProt Q9Y6D6), for which the “dose-dependent thermal stabilisation call” value is inactive: 0.

Regarding AK3L1, the “dose-dependent thermal stabilisation call” value is inactive: 0.

Take AKAP9 (UniProt Q99996): the “dose-dependent thermal stabilisation call” value is inactive: 0.

Turning to AKAP8 (UniProt O43823), the “dose-dependent thermal stabilisation call” value is inactive: 0.

On to AKR1A1 (UniProt P14550), for which the “dose-dependent thermal stabilisation call” value was inactive: 0.
